Here are results for one molecule from publication PMC5218808.

No constants are given. Whether binding was seen depends on the method and setting. In cells and extracts the contact can be indirect. Binding calls can cover weak binding; strength is not graded here. Sequences can lack the tags named with a protein.

The test concerns the target Myc-tagged ITCH. Put plainly: co-IP; HEK293T cells co-transfected with Flag-DUB3 and Myc-ITCH, 5 uM MG132 overnight, lysed in PLC buffer; immunoprecipitation with anti-Flag or anti-Myc beads, 2 hours at 4°C; blots with anti-Flag and anti-Myc.

B1: Flag-tagged DUB3 (USP17L17 isoform of DUB3) (enzyme, UniProt D6RBQ6 1-530)
chain: MEDDSLYLGGEWQFNHFSKLTSSRPDAAFAEIQRTSLPEKSPLSCETRVDLCDDLAPVARQLAPREKLPLSSRRPAAVGAGLQNMGNTCYVNASLQCLTYTPPLANYMLSREHSQTCHRHKGCMLCTMQAHITRALHNPGHVIQPSQALAAGFHRGKQEDAHEFLMFTVDAMKKACLPGHKQVDHHSKDTTLIHQIFGGYWRSQIKCLHCHGISDTFDPYLDIALDIQAAQSVQQALEQLVKPEELNGENAYHCGVCLQRAPASKTLTLHTSAKVLILVLKRFSDVTGNKIAKNVQYPECLDMQPYMSQQNTGPLVYVLYAVLVHAGWSCHNGHYFSYVKAQEGQWYKMDDAEVTAASITSVLSQQAYVLFYIQKSEWERHSESVSRGREPRALGAEDTDRRATQGELKRDHPCLQAPELDEHLVERATQESTLDHWKFLQEQNKTKPEFNVRKVEGTLPPDVLVIHQSKYKCGMKNHHPEQQSSLLNLSSSTPTHQESMNTGTLASLRGRARRSKGKNKHSKRALLVCQ
On to B1, for which the binding result is “binds”.
